## Primary screen of a compound library

The values are deposited in ChEMBL (CHEMBL3988442, “University of Dundee, Small-Polar-MMV Screening Library” (2021)).

Each number is a percent effect as filed. The controls that fix the scale are not given in the record; negative values are as filed. The compounds are a random part of those screened. Two or more numbers in one place are separate tests of the same structure; such repeats can differ widely.

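Whole-cell growth test on Mycobacterium tuberculosis, read after 4 days in a medium based on cholesterol and the lipid DPPC; the read-out is not stated. Concentration: 50 µM. Direction is inferred from retests: higher values go with more growth inhibition. Of about 69,000 compounds tested this way, about 370 (0.54%) reached 50% or more in at least one test.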

- COCC(=O)N1CCC2(C1)c1ccccc1S(=O)(=O)N2C (centres unmarked) : 5.942%
- Cc1ccc(NC(=O)Cn2ncc(SCC(N)=O)c(Cl)c2=O)cc1 : -14.12%
- O=C1CCc2cc(S(=O)(=O)NC(=O)c3ccc4c(c3)COC4)ccc2N1 : -6.342%
- COc1cc(C)c(CNC(C)c2nc(C)cs2)cc1OC (centres unmarked) : 13.89%
- O=C(C1CCC2(CCN(Cc3cccnc3)CC2)CO1)N1CCCC1.O=C(O)C(F)(F)F.O=C(O)C(F)(F)F (centres unmarked) : -4.096%
- Cc1cc(C)n(CCC(=O)N2CCCC(c3cc(C(N)=O)[nH]n3)C2)n1 (centres unmarked) : -39.33%
- Cc1nc(CN2C(=O)CCC23CCN(c2ncccc2C)CC3)cs1 : -26.39%
- Cc1ccc(S(=O)(=O)n2ccn(C(=O)COc3ccccc3)c2=O)cc1 : 8.641%
- Cc1cccc(CNC(=O)Nc2ccn(CCN(C)C)n2)c1 : 16.04%
- Cc1nc(CC(=O)N2CCC3(CC2)CC(=O)N(CC2CCCO2)C3)cs1 (centres unmarked) : -20.31% and -14.45%
- Cc1nn(Cc2ccc(F)cc2)c2[nH]nc(N)c12 : -11.17%
- CN(CC(N)=O)Cc1csc(-c2ccc(F)cc2)n1 : -7.424%
- CCn1ccnc1CN1CCC(=O)N(CC2CC2)C(C(C)C)C1 (centres unmarked) : -41.41%
- COc1ccc(NC(=O)N(CC2CCOC2)C2CC2)cn1 (centres unmarked) : -45.1%
- N#CCC(=O)NCc1nnc2n1CCN(Cc1nccs1)C2 : 8.424%
- Cc1cnn(C2CCCN(C(=O)CCNS(C)(=O)=O)C2)c1 (centres unmarked) : -18.24%
- [H][C@]12CN(Cc3ccccc3Cl)CCN1C(=O)N(Cc1ccccc1)C2 : 18.74%
- CCC1(CNCc2ncc[nH]2)CCCC1 : 3.516%
- Cl.O=C(O)CC1CN(Cc2ccccc2)CCO1 (centres unmarked) : -10.98% and -9.21%
- CC(C)(C)c1ccc(S(=O)(=O)CCNC(=O)c2cnccn2)cc1 : -15.21%
- CCN(C)c1cc(CNC(=O)CNC(=O)CC2CCCCC2)ccn1 : -7.277%
- [H][C@@]12COC[C@]1(COc1ccc(C#N)cn1)CN(c1ncccn1)C2 : -29.16%
- COC(=O)c1cccc(S(=O)(=O)NCC(c2ccco2)N2CCCC2)c1 (centres unmarked) : 12.1%
- CS(=O)(=O)CCN(CCc1cccc(F)c1)C1CC1 : -1.798%
- Cc1cc(C(=O)N2CC[C@H](OCC3CC3)[C@@H]2Cc2cccnc2)no1 : 7.807%
- Cc1noc(C)c1CS(=O)(=O)CC(=O)N1CCc2sccc2C1 : -16.24%
- CC(C)n1ccc2c(C(=O)NC3CN4CCC3CC4)cccc21 (centres unmarked) : 6.176%
- CC(=O)N1Cc2ccccc2C[C@H]1C(=O)N(C)Cc1ccccn1 : 3.199%
- COCC1COCCC12CCN(C(=O)CC1=CCCCC1)CC2 (centres unmarked) : -6.672%
- CN1CCc2c(C#N)c(NCc3cccnc3)n3cnnc3c2C1.Cl : -2.302%
- Cc1nc(NC(=O)c2ccc(-n3ncc(C#N)c3N)cc2)sc1C : -3.372%
- CCSCCC(=O)Nc1ncn(Cc2cccnc2)n1 : -22.6%
- Cn1ncc2c1C(COCC1CC1)CN(c1ncc(F)cn1)C2 (centres unmarked) : -7.634%
- CCCn1ncc2c(C(=O)Nc3cnn(CC)c3C)cc(C3CC3)nc21 : 0.7333%
- OC1CCN(C2CCN(Cc3cnc(-c4cccs4)nc3)CC2)CC1 : -13.62%
- CC(C)(C)c1cc(C[C@H]2CNCC[C@H]2CC(=O)NC2CCCCC2)no1 : -34.24%
- COc1ccccc1OCCNC(=O)N1CCC(n2cncn2)CC1 : -7.545%
- COCCN(C(=O)c1cc(C)no1)c1ccc(C#N)cc1 : 1.208%
- COC(=O)c1sccc1S(=O)(=O)NCC1(O)CCOc2ccccc21 (centres unmarked) : -10.82%
- O=C(O)c1cc(-c2cccnc2)cc(S(=O)(=O)NCc2ccccn2)c1 : 2.367%
- NC(=O)C1CCN(C(=O)NCCOc2ccc3c(c2)OCO3)C1 (centres unmarked) : 2.63%
- CC1CN(CCOc2cccc(C#N)c2)CCN1Cc1nccn1C (centres unmarked) : -0.9558%
- CC(C)N(C)S(=O)(=O)c1ccc2c(c1)CCN(C(=O)c1ccccn1)C2 : -15.15%
- Cc1cnc(-c2nc(C3CCCN(Cc4cccs4)C3)no2)cn1 (centres unmarked) : -17.72% and -4.796%
- O=C(CC1CC1)NCc1cn2c(n1)CN(Cc1cccnc1)CC2.O=C(O)C(F)(F)F.O=C(O)C(F)(F)F : -19.98%
- O=C(O)C(F)(F)F.[H][C@@]12CN(C(=O)CCOC)C[C@]1([H])C(=O)N(Cc1cccnc1)C2 : -30.41%
- Cc1cnn(CCC(=O)Nc2ccc(F)cc2OCC2CC2)c1 : 10.47% and 4.405%
- CC(=O)NCc1ccc(-n2ccnc2C)nc1 : -1.362% and -0.734%
- c1ccc(-n2ncc(CNCC3CCCN3c3cccnn3)n2)cc1 (centres unmarked) : 20.58%
- Cc1cc(N(C)C)nc(N2CCn3c(C)nnc3C2)n1 : 3.612%
- Cc1cc(CN(C)Cc2csc(-c3ccc(C(C)C)cc3)n2)no1 : 13.34%
- CCn1cnnc1CNC(=O)c1cc(Cl)c(I)cc1OC : 5.125%
- N#Cc1nccnc1N1CCC(OCCCc2ccccc2)C1 (centres unmarked) : 42.72%
- CNC(=O)c1cccc(CNC2CCCSc3ccccc32)c1 (centres unmarked) : 8.988%
- Cc1ccc(N2CCCC(NC(=O)CCc3ccccn3)C2=O)cc1 (centres unmarked) : -4.467%
- CCOC(C)c1noc(CN2CCN(Cc3cccnc3)CC2)n1 (centres unmarked) : 17.13%

The first 4 entries again:

compound	percent effect
COCC(=O)N1CCC2(C1)c1ccccc1S(=O)(=O)N2C (centres unmarked)	5.942%
Cc1ccc(NC(=O)Cn2ncc(SCC(N)=O)c(Cl)c2=O)cc1	-14.12%
O=C1CCc2cc(S(=O)(=O)NC(=O)c3ccc4c(c3)COC4)ccc2N1	-6.342%
COc1cc(C)c(CNC(C)c2nc(C)cs2)cc1OC (centres unmarked)	13.89%